Test system: brain, liver, kidney, spleen and lung tissue of mice
Test: Two-photon microscope imaging of tissue slices of mice
Design: species or system C57BL6 mice
Conditions: 10 μM

CN(C)c1ccc2cc3c(cc2c1)OC1CCCC(=O)C1=C3 (centres unmarked) [compound 4a, 8-(dimethylamino)-2,3,4a-tetrahydro-1H-benzo[b]xanthene-1-one]
two-photon microscope image quality compared to acedan (10 minutes, 16 μm slices, excitation 900 nm (acedan 780 nm), 10 mW): more clear image with a higher contrast
effect from autofluorescence in the image (excitation 900 nm, contrary to acedan at 780 nm): sufficiently suppressed
